In patent US7294615B1 (priority 1999, dated 2007):

Experiment: general procedure: solution-phase peptide synthesis; active esters (BocGlyGlyNOS, BocNH(CH2)5COONp) with NEt3
Conditions: conjugation step

Going from “[Ac4(OMe)Neu5Ac-Gab-AC-Ad-Gly5-NHCH2—]4C” to “[Ac4(OMe)Neu5Ac-Gab-AC2-Ad-Gly5-NHCH2—]4C”, the conjugation yield falls from 76% to 46%.

First: [Ac4(OMe)Neu5Ac-Gab-Ad-Gly4-NHCH2—]4C
Second: [Ac4(OMe)Neu5Ac-Gab-Ad-AC2-Gly5-NHCH2—]4C
The conjugation yield of the first is higher: 68% for the first, 60% for the second.

First: [Ac4(OMe)Neu5Ac-Gab-Ad-Gly5-NHCH2-]4C
Second: PEPTIDE1{[Bdi-Ap-Ad].[AC].[AC].[AC].G.G.G.G.G}|PEPTIDE2{[Bdi-Ap-Ad].[AC].[AC].[AC].G.G.G.G.G}|PEPTIDE3{[Bdi-Ap-Ad].[AC].[AC].[AC].G.G.G.G.G}|PEPTIDE4{[Bdi-Ap-Ad].[AC].[AC].[AC].G.G.G.G.G}|CHEM1{[C(CH2NH)4]}$PEPTIDE1,CHEM1,9:R2-1:R1|PEPTIDE2,CHEM1,9:R2-1:R2|PEPTIDE3,CHEM1,9:R2-1:R3|PEPTIDE4,CHEM1,9:R2-1:R4$$$V2.0
The conjugation yield of the first is lower: 65% for the first, 69% for the second.

First: [Ac4(OMe)Neu5Ac-Gab-AC3-Ad-Gly5-NHCH2—]4C
Second: [Ac4(OMe)Neu5Ac-Gab-Ad-AC3-Gly5-NHCH2—]4C
The conjugation yield of the first is lower: 11% for the first, 57% for the second.

Same assay, conditions: conjugation step, ammonium salt

Work on {[Neu5Ac-Gab-Ad-Gly7-NHCH2-]4C}x yielded a conjugation yield of 71%.

With {[Neu5Ac-Gab-Ad-Gly6-NHCH2CH2-]2}x the conjugation yield was “Yield 72%”.

Same assay, conditions: coupling step

Compared with [Boc-AC2-Gly5-NHCH2—]4C, [Boc-AC-Gly5-NHCH2—]4C is higher in step yield: 57% for the first, 71% for the second.

[Boc-AC3-Gly5-NHCH2—]4C gave a step yield of 40%.

Same assay, conditions: late stage modification step

First: [Neu5Ac-Gab-Ad-Gly4-NHCH2—]4C
Second: [Neu5Ac-Gab-Ad-AC3-Gly5-NHCH2—]4C
The step yield of the first is lower: 83% for the first, 90% for the second.

Going from [Neu5Ac-Gab-Ad-AC2-Gly5-NHCH2—]4C to [Neu5Ac-Gab-AC3-Ad-Gly5-NHCH2—]4C, the step yield rises from 87% to 89%.

First: [Neu5Ac-Gab-AC-Ad-Gly5-NHCH2—]4C
Second: [Neu5Ac-Gab-AC2-Ad-Gly5-NHCH2—]4C
The step yield of the first is higher: 93% for the first, 86% for the second.

For [Neu5Ac-Gab-Ad-Gly5-NHCH2—]4C, the step yield was 83%.

Some peptides are written in HELM: one residue between dots, names in brackets for other building blocks, links after the first $.
